Measured values: PMC12442639, “A Two‐Protein Chemoreceptor Complex Regulates Oxygen Thresholds in Bacterial Magneto‐Aerotaxis” (Advanced Science, 2025)
No constants are given. Whether binding was seen depends on the method and setting. Some entries that bind do so weakly or less than the wild type.

Target: CetA2 (two-hybrid fusion protein) (Magnetospirillum gryphiswaldense)
Assay: two-hybrid; adenylate cyclase-based bacterial two-hybrid assay in E. coli; T18 and T25 fusions; blue colony colour on lactose and X-Gal-containing mineral salts agar; at least three cotransformants per tested interaction

binding | Substance
binds | CetA2 (two-hybrid fusion protein) (from UniProt A0ACM8UKD1 1-436) (receptor)
binds | CetB2 (two-hybrid fusion protein) (from UniProt A0ACM8ULG3 1-174)
